This passage reports activity change, positive = activation results from PubChem BioAssay AID1948 (National Center for Advancing Translational Sciences (NCATS), 2009).

SMILES strings stand for the structures. The campaign covered roughly 110,000 compounds. About 20 (0.02%) were called active. Inconclusive results (about 2%) are left out. The entries are a selection whose mix differs from that of the whole data set. The source gives no active or inactive call for entries shown without one.

This test is described as follows: qHTS Assay for Compounds that Induce Erasure of Genomic Imprints.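 Note: 0% = negative control wells on the plate.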 The conditions noted are these: mouse ES Peg3-LacZ reporter, beta-gal luminescence, 40 h; at 60.7 µM (top of the series; calls come from the whole dose curve). The text has this:
qHTS Assay for Compounds that Induce Erasure of Genomic Imprints NIH Chemical Genomics Center [NCGC] NIH Molecular Libraries Screening Centers Network [MLSCN] Assay Submitter (PI): JEFFRIES, SEAN, NCGC, University of Cambridge NCGC Peg3 Imprinting Assay Overview Genomic imprinting is the epigenetic process whereby genes are expressed in a parent of origin fashion. […] Unlike some forms of epigenetic silencing that can be overcome by overexpression of transcription factors, genomic imprinting stably represses the expression of one allele despite potentially high levels of expression from the other allele. […] During mouse embryonic day 11.5 imprints are erased in PGCs so that sex specific imprints can be reestablished during gametogenesis. Embryonic germ (EG) cells can be derived from developing PGCs at embryonic day 11.5 and these cells often lack genomic imprints. […] The assay uses a luminescence based read out for LacZ activity and is a homogenous assay optimal for HTS.
NCGC Peg3 Imprinting Assay Protocol Summary ES cell lines were derived from blastocysts taken from Peg3LacZ-Neo x129 matings. […] A single luminescence read was taken at the end of the assay and the data was normalized by plate to internal negative controls. Maximum efficacy and AC50 values were calculated from dose-response data using the standard Hill equation. […] (4)Read luminescence on the ViewLux plate reader. […]
On the technique in general: In qHTS, concentration-response curves come from the screen itself.
Take `CCCCCCCCCc1ccc(O)cc1`: the activity change, positive = activation turned out to be 41.1%. The result for `N#C/C(=C\c1cccc(O)c1)C(=O)O` reads 32.1%.
